These are yes or no findings as the source states them, for the method shown. For part of these data: In cells and extracts the contact can be indirect. Some entries that bind do so weakly or less than the wild type. Sequences can lack the tags named with a protein.
T1: V5-tagged Wts (Warts) (Drosophila) (UniProt Q9VA38)
T1 sequence: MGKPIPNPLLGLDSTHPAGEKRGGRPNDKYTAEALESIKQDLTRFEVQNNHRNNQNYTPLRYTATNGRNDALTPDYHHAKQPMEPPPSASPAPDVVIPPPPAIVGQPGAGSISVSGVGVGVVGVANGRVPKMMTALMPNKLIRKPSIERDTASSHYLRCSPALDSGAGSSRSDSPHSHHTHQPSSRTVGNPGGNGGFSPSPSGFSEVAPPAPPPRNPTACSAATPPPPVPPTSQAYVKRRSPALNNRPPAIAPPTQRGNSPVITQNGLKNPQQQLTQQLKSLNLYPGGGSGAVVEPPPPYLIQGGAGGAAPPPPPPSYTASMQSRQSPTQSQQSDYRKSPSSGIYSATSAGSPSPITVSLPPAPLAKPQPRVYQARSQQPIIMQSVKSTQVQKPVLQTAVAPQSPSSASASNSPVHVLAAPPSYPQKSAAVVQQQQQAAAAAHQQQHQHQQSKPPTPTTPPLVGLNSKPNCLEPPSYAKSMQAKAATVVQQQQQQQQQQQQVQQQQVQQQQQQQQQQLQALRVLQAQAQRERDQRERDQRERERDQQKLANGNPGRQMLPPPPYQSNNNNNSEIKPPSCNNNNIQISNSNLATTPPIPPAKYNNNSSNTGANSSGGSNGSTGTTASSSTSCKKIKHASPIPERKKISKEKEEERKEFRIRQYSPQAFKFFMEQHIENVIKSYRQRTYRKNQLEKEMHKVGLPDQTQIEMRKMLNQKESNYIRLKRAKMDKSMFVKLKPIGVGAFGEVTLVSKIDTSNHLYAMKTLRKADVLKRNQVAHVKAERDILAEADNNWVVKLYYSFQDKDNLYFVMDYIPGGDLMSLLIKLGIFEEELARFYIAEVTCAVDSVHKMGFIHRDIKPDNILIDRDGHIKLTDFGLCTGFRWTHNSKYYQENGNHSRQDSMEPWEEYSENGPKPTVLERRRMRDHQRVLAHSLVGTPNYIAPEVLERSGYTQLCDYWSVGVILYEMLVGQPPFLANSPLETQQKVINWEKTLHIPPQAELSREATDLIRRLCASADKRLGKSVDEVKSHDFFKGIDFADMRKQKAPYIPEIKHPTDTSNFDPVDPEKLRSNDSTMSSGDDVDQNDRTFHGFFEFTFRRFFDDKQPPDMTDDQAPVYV


Key:
[1] = target: T1, V5-tagged Wts (Warts) (Drosophila); assay: summary of yeast two-hybrid and co-immunoprecipitation from S2 cells
[2] = target: T1, V5-tagged Wts (Warts) (Drosophila); assay: co-immunoprecipitation from S2 cells (anti-HA IP, anti-V5 blot)
[3] = target: T1, V5-tagged Wts (Warts) (Drosophila); assay: co-immunoprecipitation from S2 cells
[4] = target: Sos-Wts bait (human Sos fused to N-terminal fragment of Wts, 1-608) (human; Drosophila) (UniProt Q07889+Q9VA38); assay: yeast two-hybrid (Sos recruitment / CytoTrap), Sos-Wts bait

Row | binding [1] | binding [2] | binding [3] | binding [4] | Binder
1 | binds | binds | binds |  | HA-tagged wildtype Yki (Yorkie) (protein) MCACLIAKIILCSFRLYTISAFYMLTTMSASSNTNSLIEKEIDDEDMLSPIKSNNLVVRVNQDTDDNLQALFDSVLNPGDAKRPLQLPLRMRKLPNSFFTPPAPSHSRANSADSTYDAGSQSSINIGNKASIVQQPDGQSPIAAIPQLQIQPSPQHSRLAIHHSRARSSPASLQQNYNVRARSDAAAANNPNANPSSQQQPAGPTFPENSAQEFPSGAPASSAIDLDAMNTCMSQDIPMSMQTVHKKQRSYDVISPIQLNRQLGALPPGWEQAKTNDGQIYYLNHTTKSTQWEDPRIQYRQQQQILMAERIKQNDVLQTTKQTTTSTIANNLGPLPDGWEQAVTESGDLYFINHIDRTTSWNDPRMQSGLSVLDCPDNLVSSLQIEDNLCSNLFNDAQAIVNPPSSHKPDDLEWYKINYPYDVPDYA
2 |  |  |  | binds | Yki clone 186-418 (myristylation-signal prey fusion) (protein, myristylation signal) AAANNPNANPSSQQQPAGPTFPENSAQEFPSGAPASSAIDLDAMNTCMSQDIPMSMQTVHKKQRSYDVISPIQLNRQLGALPPGWEQAKTNDGQIYYLNHTTKSTQWEDPRIQYRQQQQILMAERIKQNDVLQTTKQTTTSTIANNLGPLPDGWEQAVTESGDLYFINHIDRTTSWNDPRMQSGLSVLDCPDNLVSSLQIEDNLCSNLFNDAQAIVNPPSSHKPDDLEWYKIN
3 |  |  |  | binds | Yki clone 229-418 (myristylation-signal prey fusion) (protein, myristylation signal) MNTCMSQDIPMSMQTVHKKQRSYDVISPIQLNRQLGALPPGWEQAKTNDGQIYYLNHTTKSTQWEDPRIQYRQQQQILMAERIKQNDVLQTTKQTTTSTIANNLGPLPDGWEQAVTESGDLYFINHIDRTTSWNDPRMQSGLSVLDCPDNLVSSLQIEDNLCSNLFNDAQAIVNPPSSHKPDDLEWYKIN
4 |  |  |  | binds | Yki clone 18-418 (myristylation-signal prey fusion) (protein, myristylation signal) TISAFYMLTTMSASSNTNSLIEKEIDDEDMLSPIKSNNLVVRVNQDTDDNLQALFDSVLNPGDAKRPLQLPLRMRKLPNSFFTPPAPSHSRANSADSTYDAGSQSSINIGNKASIVQQPDGQSPIAAIPQLQIQPSPQHSRLAIHHSRARSSPASLQQNYNVRARSDAAAANNPNANPSSQQQPAGPTFPENSAQEFPSGAPASSAIDLDAMNTCMSQDIPMSMQTVHKKQRSYDVISPIQLNRQLGALPPGWEQAKTNDGQIYYLNHTTKSTQWEDPRIQYRQQQQILMAERIKQNDVLQTTKQTTTSTIANNLGPLPDGWEQAVTESGDLYFINHIDRTTSWNDPRMQSGLSVLDCPDNLVSSLQIEDNLCSNLFNDAQAIVNPPSSHKPDDLEWYKIN
